These are yes or no findings as the source states them, for the method shown. Binding seen in cells or lysates may run through a third protein. Binding calls can cover weak binding; strength is not graded here.

Chains of the proteins cited; added tags and fusions are not shown. Lines headed by an entry give the natural chain unless they say otherwise; changes in a name come on top. Residues count along the entry.
UniProt P78324, residues 31-504: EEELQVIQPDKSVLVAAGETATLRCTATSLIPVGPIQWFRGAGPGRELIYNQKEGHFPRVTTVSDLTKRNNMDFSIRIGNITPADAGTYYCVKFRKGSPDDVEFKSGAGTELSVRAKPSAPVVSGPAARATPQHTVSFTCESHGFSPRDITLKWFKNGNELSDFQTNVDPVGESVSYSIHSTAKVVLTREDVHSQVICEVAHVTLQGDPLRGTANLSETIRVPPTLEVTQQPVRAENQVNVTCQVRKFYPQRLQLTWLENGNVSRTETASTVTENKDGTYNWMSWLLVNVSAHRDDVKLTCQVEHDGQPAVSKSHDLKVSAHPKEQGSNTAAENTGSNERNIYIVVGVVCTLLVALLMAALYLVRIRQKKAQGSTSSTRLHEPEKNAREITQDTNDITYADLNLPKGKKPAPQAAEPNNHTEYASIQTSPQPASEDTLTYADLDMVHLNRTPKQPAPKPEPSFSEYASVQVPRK
UniProt P29350: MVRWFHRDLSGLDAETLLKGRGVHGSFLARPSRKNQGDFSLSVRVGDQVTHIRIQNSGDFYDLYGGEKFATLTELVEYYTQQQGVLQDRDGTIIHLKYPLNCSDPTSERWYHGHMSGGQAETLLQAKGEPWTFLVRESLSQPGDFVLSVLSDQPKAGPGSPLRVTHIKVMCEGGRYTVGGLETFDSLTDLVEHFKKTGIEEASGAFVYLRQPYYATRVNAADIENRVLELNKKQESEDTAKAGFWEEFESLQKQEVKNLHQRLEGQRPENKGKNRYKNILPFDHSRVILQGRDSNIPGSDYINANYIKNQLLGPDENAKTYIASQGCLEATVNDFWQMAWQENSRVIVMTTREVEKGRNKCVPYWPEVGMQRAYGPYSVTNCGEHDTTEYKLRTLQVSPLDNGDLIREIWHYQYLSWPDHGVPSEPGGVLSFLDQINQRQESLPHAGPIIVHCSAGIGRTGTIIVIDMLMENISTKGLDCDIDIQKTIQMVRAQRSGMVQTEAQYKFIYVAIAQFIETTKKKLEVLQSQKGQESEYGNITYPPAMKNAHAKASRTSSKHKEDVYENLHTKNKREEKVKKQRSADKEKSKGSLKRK

For the assay, the target named is full-length huSIRPα V1 with a small β-galactosidase fragment (ED) fused to its C-terminal (human) (UniProt P78324). The experiment in a line: split reporter; β-galactosidase fragment complementation (SIRPα/SHP-1 recruitment assay): K562/SHP-1+hSIRPα+CD47− cells with Jurkat cells at 1:4, overnight at 37°C; chemiluminescence.

“SH2-domain of SHP-1 engineered with the complementing β-galactosidase fragment (from UniProt P29350) (domain or fragment)”: the binding result is “binds”.
